PubChem BioAssay AID1053208 | Peter MacCallum Cancer Centre, 2014
Shown is a random part of about 17,000 reagents tested. In the full data, 788 (4.7%) are marked active. 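Calls rest on z-score classes alone; an extra cut-off of viability at most 70% of control was not applied to them.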 Entries without a mark were called inactive. Not all columns of the deposit are shown. No sequences are given here.

Screen: 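Find knock-downs that sensitise mouse osteosarcoma cells to doxorubicin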 (primary screen)
Cells: mouse osteosarcoma cells, early-passage culture from an engineered mouse model of fibroblastic bone tumour
Reagent: siRNA pool against mouse genes, 40 nM
Duration: about 120 h (48 h before drug, then 72 h with drug)
Treatment: doxorubicin 100 nM for 72 h, roughly 30-40% inhibitory dose
Read-out: 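Luminescent ATP signal taken as viability with or without 100 nM doxorubicin for 72 h; mean of two wells set against non-targeting siRNA and turned into robust z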
Scale: viability z-score with doxorubicin: higher = more viable cells under doxorubicin; viability z-score without drug: higher = more viable cells with knock-down alone
Rule for the call: 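a pool counts as active when its viability z-score with doxorubicin is -2 or below and its z-score without drug lies between -2 and 2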

F2rl2 (coagulation factor II thrombin receptor like 2): combined z-score class = no change with or without drug; viability z-score with doxorubicin = -0.67; viability z-score without drug = -1.18
Mrpl45 (mitochondrial ribosomal protein L45): combined z-score class = low cell count with and without drug; viability z-score with doxorubicin = -2.02; viability z-score without drug = -2.53
Rhot1 (ras homolog family member T1): combined z-score class = high cell count with and without drug; viability z-score with doxorubicin = 3.71; viability z-score without drug = 2.7
Lysmd1 (LysM, putative peptidoglycan-binding, domain containing 1): combined z-score class = no change with or without drug; viability z-score with doxorubicin = -1.12; viability z-score without drug = -0.51
Ano1 (anoctamin 1, calcium activated chloride channel): combined z-score class = no change with or without drug; viability z-score with doxorubicin = 1.35; viability z-score without drug = 0.51
Tnk2 (tyrosine kinase, non-receptor, 2): combined z-score class = no change with or without drug; viability z-score with doxorubicin = 0.22; viability z-score without drug = 0.34
Pcolce2 (procollagen C-endopeptidase enhancer 2): combined z-score class = no change with or without drug; viability z-score with doxorubicin = 0.22; viability z-score without drug = 0.84
Tdrd1 (tudor domain containing 1): combined z-score class = low cell count with and without drug; viability z-score with doxorubicin = -2.92; viability z-score without drug = -3.88
Scrg1 (scrapie responsive gene 1): combined z-score class = no change with or without drug; viability z-score with doxorubicin = 0.79; viability z-score without drug = 0.17
Vmn1r81 (vomeronasal 1 receptor 81): combined z-score class = high cell count with and without drug; viability z-score with doxorubicin = 3.04; viability z-score without drug = 2.53
Tor4a (torsin family 4, member A): combined z-score class = no change with or without drug; viability z-score with doxorubicin = 0.9; viability z-score without drug = 0.84
Amfr (autocrine motility factor receptor): combined z-score class = no change with or without drug; viability z-score with doxorubicin = 0.22; viability z-score without drug = -0.51
Esco2: combined z-score class = no change with or without drug; viability z-score with doxorubicin = -0.67; viability z-score without drug = 0.17
Pparg (peroxisome proliferator activated receptor gamma): combined z-score class = no change with or without drug; viability z-score with doxorubicin = 1.57; viability z-score without drug = -0.51
Rpl41 (ribosomal protein L41): combined z-score class = no change with or without drug; viability z-score with doxorubicin = -0.45; viability z-score without drug = 0.67
Pja2 (praja ring finger ubiquitin ligase 2): combined z-score class = no change with or without drug; viability z-score with doxorubicin = -1.35; viability z-score without drug = 0
Lsm10 (U7 snRNP-specific Sm-like protein LSM10): combined z-score class = no change with or without drug; viability z-score with doxorubicin = -0.11; viability z-score without drug = -0.51
Gpc3 (glypican 3): combined z-score class = no change with or without drug; viability z-score with doxorubicin = -0.11; viability z-score without drug = -0.51
Shox2 (SHOX homeobox 2): combined z-score class = no change with or without drug; viability z-score with doxorubicin = 0; viability z-score without drug = 0.51
Drd1 (dopamine receptor D1): combined z-score class = no change with or without drug; viability z-score with doxorubicin = 0; viability z-score without drug = 0.34
Zfp273 (zinc finger protein 273): combined z-score class = no change with or without drug; viability z-score with doxorubicin = -1.01; viability z-score without drug = -0.84
Scpep1 (serine carboxypeptidase 1): combined z-score class = no change with or without drug; viability z-score with doxorubicin = 0; viability z-score without drug = 0.17
Cmklr1 (chemerin chemokine-like receptor 1): combined z-score class = no change with or without drug; viability z-score with doxorubicin = 0.34; viability z-score without drug = 1.18
Kbtbd4 (kelch repeat and BTB (POZ) domain containing 4): combined z-score class = no change with or without drug; viability z-score with doxorubicin = 0.45; viability z-score without drug = 1.85

An excerpt from the list above:
Pparg (peroxisome proliferator activated receptor gamma): combined z-score class = no change with or without drug; viability z-score with doxorubicin = 1.57; viability z-score without drug = -0.51
Rpl41 (ribosomal protein L41): combined z-score class = no change with or without drug; viability z-score with doxorubicin = -0.45; viability z-score without drug = 0.67
Pja2 (praja ring finger ubiquitin ligase 2): combined z-score class = no change with or without drug; viability z-score with doxorubicin = -1.35; viability z-score without drug = 0
Lsm10 (U7 snRNP-specific Sm-like protein LSM10): combined z-score class = no change with or without drug; viability z-score with doxorubicin = -0.11; viability z-score without drug = -0.51

Additional results follow:
C130023O10Rik (RIKEN cDNA C130023O10 gene): combined z-score class = no change with or without drug; viability z-score with doxorubicin = -0.34; viability z-score without drug = -0.17
Irf9 (interferon regulatory factor 9): combined z-score class = no change with or without drug; viability z-score with doxorubicin = 0.34; viability z-score without drug = 0.67
Rcor2 (REST corepressor 2): combined z-score class = no change with or without drug; viability z-score with doxorubicin = 0.22; viability z-score without drug = 0.67
Cdkn2b (cyclin dependent kinase inhibitor 2B): combined z-score class = no change with or without drug; viability z-score with doxorubicin = 0; viability z-score without drug = 0
Scgb3a1 (secretoglobin, family 3A, member 1): combined z-score class = no change with or without drug; viability z-score with doxorubicin = -1.35; viability z-score without drug = -0.51
Gtpbp2 (GTP binding protein 2): combined z-score class = no change with or without drug; viability z-score with doxorubicin = -0.22; viability z-score without drug = 0.17
Spdef (SAM pointed domain containing ets transcription factor): combined z-score class = no change with or without drug; viability z-score with doxorubicin = 0.56; viability z-score without drug = -0.17
Ogfr (opioid growth factor receptor): combined z-score class = no change with or without drug; viability z-score with doxorubicin = -0.56; viability z-score without drug = 0.17
Mical1: combined z-score class = no change with or without drug; viability z-score with doxorubicin = 1.69; viability z-score without drug = -0.51
Ttc12 (tetratricopeptide repeat domain 12): combined z-score class = no change with or without drug; viability z-score with doxorubicin = -0.9; viability z-score without drug = 0.34
Defa4 (defensin, alpha, 4): combined z-score class = no change with or without drug; viability z-score with doxorubicin = -0.22; viability z-score without drug = 0.84
Cyp51 (cytochrome P450, family 51): combined z-score class = no change with or without drug; viability z-score with doxorubicin = 0.45; viability z-score without drug = 1.52
